Drawing on PMC7862700, this text covers binding signal for 30 sequences.

Protein sequences, listed by entry. Tags and fused reporters are not part of them. Lines headed by an entry give the natural chain unless they say otherwise; changes in a name come on top.
UniProt P32519: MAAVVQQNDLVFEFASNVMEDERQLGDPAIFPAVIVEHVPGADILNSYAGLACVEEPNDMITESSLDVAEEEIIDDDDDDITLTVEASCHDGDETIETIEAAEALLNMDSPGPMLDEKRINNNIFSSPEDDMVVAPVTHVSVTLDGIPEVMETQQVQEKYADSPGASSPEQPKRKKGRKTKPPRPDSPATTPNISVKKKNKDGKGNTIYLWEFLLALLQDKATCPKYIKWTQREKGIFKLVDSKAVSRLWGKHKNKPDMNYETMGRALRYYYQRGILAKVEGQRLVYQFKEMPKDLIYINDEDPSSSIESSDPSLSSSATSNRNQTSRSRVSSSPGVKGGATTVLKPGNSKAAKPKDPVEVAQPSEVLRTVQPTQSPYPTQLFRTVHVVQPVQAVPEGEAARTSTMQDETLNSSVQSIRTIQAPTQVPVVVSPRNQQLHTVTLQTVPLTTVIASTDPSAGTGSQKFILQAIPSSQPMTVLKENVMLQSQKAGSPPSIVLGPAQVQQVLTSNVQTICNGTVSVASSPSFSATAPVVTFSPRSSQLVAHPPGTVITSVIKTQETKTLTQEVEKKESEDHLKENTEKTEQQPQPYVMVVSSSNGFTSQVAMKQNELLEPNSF
UniProt P50549: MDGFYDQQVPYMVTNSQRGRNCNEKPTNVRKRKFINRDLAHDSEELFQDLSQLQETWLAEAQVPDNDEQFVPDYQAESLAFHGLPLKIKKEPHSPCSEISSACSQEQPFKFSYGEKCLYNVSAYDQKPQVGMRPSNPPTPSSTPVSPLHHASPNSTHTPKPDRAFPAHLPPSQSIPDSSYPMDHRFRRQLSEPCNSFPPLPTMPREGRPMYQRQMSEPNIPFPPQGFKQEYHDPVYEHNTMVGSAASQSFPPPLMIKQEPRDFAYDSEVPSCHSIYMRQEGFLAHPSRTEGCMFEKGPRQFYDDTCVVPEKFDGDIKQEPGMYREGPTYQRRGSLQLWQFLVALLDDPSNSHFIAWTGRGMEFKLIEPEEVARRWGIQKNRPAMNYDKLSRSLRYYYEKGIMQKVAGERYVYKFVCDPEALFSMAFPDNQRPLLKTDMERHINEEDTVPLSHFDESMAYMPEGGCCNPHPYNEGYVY

The entries are a selection whose mix differs from that of the whole data set. For part of these data: At the low end of the ranking the order means little. The list shows a part of the results. For part of these data: The exact form of the protein is not confirmed.

What all share (assay): DAPPL (digital affinity profiling via proximity ligation, sequencing)
Conditions in all cases: 10 mM Tris-HCl pH 7.5, 50 mM NaCl, 1 mM DTT, 4% glycerol, room temperature, 30 min; GST-TFs on glutathione beads, 16-mer random dsDNA library, 0.1% …; high values mean tight binding; double strand, one strand shown; scale: fold enrichment (6-mer frequency, TF over GST control)

In one assay the target is T1, ERG (UniProt P11308).
T1 sequence: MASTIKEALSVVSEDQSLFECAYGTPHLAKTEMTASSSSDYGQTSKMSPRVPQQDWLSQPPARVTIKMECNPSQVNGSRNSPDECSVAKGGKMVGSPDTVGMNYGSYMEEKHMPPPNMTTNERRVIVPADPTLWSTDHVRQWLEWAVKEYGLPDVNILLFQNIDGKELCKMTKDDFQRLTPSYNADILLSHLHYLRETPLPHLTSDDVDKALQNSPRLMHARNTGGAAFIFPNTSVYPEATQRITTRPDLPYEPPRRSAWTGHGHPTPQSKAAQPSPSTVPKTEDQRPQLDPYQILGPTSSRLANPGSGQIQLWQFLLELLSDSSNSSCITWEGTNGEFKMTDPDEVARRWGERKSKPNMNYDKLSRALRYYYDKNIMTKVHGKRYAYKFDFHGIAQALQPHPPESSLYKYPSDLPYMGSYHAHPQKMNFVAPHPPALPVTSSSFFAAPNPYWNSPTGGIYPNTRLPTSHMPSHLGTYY

The target of another assay is ELF1 (UniProt P32519).
Another assay deals with T2, ELK4 (UniProt P28324-2).
T2 sequence: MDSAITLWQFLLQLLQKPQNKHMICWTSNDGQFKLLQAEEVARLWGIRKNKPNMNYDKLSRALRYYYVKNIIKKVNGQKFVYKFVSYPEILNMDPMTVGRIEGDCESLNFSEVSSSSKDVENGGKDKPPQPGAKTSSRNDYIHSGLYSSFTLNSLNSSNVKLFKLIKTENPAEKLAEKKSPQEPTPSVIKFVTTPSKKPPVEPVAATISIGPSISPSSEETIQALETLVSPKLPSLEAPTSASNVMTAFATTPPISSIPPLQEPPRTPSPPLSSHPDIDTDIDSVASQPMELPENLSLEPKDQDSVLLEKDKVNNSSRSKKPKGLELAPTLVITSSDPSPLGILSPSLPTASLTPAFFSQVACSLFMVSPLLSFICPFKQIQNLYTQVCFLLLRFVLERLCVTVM

Another assay concerns the target T3, ETV4 (UniProt P43268).
T3 sequence: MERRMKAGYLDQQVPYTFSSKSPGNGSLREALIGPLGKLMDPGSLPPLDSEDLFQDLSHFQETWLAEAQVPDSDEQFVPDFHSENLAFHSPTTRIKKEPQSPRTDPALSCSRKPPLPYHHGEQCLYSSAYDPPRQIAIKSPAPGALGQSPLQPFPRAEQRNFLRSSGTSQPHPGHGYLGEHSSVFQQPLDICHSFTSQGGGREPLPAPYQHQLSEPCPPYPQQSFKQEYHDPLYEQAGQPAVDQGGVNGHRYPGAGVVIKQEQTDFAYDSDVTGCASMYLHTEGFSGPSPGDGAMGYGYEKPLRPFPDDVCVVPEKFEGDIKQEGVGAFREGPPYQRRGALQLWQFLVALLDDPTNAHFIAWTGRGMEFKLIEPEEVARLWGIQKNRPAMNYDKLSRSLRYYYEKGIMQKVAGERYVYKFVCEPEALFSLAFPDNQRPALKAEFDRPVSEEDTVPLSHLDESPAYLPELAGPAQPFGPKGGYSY

Another assay deals with ETV1 (UniProt P50549).
The target in a further assay is T4, ERF (UniProt P50548).
T4 sequence: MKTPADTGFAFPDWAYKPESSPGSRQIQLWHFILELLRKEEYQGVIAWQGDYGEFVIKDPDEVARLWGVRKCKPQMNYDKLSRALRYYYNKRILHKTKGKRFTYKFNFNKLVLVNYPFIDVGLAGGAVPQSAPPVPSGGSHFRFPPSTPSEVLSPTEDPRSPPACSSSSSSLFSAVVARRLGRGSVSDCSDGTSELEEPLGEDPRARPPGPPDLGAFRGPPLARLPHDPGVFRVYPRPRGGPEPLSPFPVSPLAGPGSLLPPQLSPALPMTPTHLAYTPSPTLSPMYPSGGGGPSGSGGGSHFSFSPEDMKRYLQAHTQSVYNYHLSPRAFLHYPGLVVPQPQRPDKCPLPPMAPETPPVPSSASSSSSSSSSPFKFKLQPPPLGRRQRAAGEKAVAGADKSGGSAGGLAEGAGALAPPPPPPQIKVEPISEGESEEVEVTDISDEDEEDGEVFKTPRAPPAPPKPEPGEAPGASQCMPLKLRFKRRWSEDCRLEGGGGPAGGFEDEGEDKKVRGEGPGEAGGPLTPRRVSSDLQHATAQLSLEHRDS

For CAGACA, the binding signal stood at 0.841 in the assay with ERG; 0.789 with ELF1; 0.912 with ELK4; 0.804 in the assay with ETV4; 0.763 in the assay with ETV1; 0.811 with ERF.

For the sequence GGCAAA, the binding signal with ERG is 0.965; in the assay with ELF1 it was 0.898; with ELK4, 0.892; with ETV4, 0.919; with ETV1 it was 0.95; with ERF, 0.876.

For the sequence GGCGCG, the binding signal with ERG stood at 0.669; with ELF1 it was 0.678; with ELK4, 0.763; with ETV4, 0.675; with ETV1, 0.654; with ERF it was 0.634.

Take AGTCAT: the binding signal with ERG worked out at 0.627; with ELF1, 0.547; in the assay with ELK4 it was 0.591; in the assay with ETV4 it was 0.603; in the assay with ETV1, 0.595; in the assay with ERF, 0.624.

On to CGCATG, for which the binding signal in the assay with ERG turned out to be 0.602; with ELF1, 0.646; with ELK4, 0.679; in the assay with ETV4, 0.678; with ETV1, 0.618; with ERF, 0.653.

With ACGGGT, the binding signal is 0.884 with ERG; 0.94 with ELF1; 0.94 in the assay with ELK4; 0.924 with ETV4; 0.92 in the assay with ETV1; 0.889 with ERF.

For GCATCG, the binding signal in the assay with ERG worked out at 0.804; with ELF1, 0.807; in the assay with ELK4, 0.773; with ETV4, 0.836; in the assay with ETV1, 0.742; with ERF, 0.69.

In the case of GAGTAG, the binding signal with ERG was found to be 0.453; with ELF1 it was 0.524; in the assay with ELK4, 0.482; with ETV4 it was 0.525; with ETV1 it was 0.512; with ERF it was 0.542.

CCAGCC: the binding signal in the assay with ERG was determined as 0.829; with ELF1, 0.813; with ELK4 it was 0.873; in the assay with ETV4 it was 0.768; in the assay with ETV1, 0.714; in the assay with ERF, 0.766.

Regarding GCACGT, the binding signal with ERG turned out to be 0.757; with ELF1 it was 0.816; in the assay with ELK4 it was 0.792; with ETV4 it was 0.778; in the assay with ETV1, 0.742; in the assay with ERF, 0.797.

On to AACGTG, for which the binding signal in the assay with ERG was 0.378; in the assay with ELF1, 0.387; with ELK4 it was 0.419; with ETV4, 0.354; in the assay with ETV1 it was 0.371; with ERF, 0.416.

ACAGGG: the binding signal amounted to 0.85 with ERG; 0.761 in the assay with ELF1; 0.715 with ELK4; 0.791 with ETV4; 0.751 with ETV1; 0.848 with ERF.

On to ACGTGA, for which the binding signal amounted to 0.259 with ERG; 0.277 with ELF1; 0.286 with ELK4; 0.259 with ETV4; 0.249 with ETV1; 0.287 with ERF.

On to GACGCG, for which the binding signal stood at 0.625 with ERG; 0.632 with ELF1; 0.755 in the assay with ELK4; 0.664 with ETV4; 0.586 in the assay with ETV1; 0.689 with ERF.

For CAGCCA, the binding signal is 0.814 in the assay with ERG; 0.855 in the assay with ELF1; 0.924 with ELK4; 0.803 in the assay with ETV4; 0.79 with ETV1; 0.837 with ERF.

On to TAGAGG, for which the binding signal stood at 0.825 in the assay with ERG; 0.852 with ELF1; 0.819 with ELK4; 0.81 with ETV4; 0.787 with ETV1; 0.925 with ERF.

Take ACCGGG: the binding signal with ERG was found to be 0.473; with ELF1, 0.497; with ELK4, 0.555; in the assay with ETV4, 0.51; in the assay with ETV1, 0.539; with ERF, 0.487.

On to TCGGGA, for which the binding signal with ERG is 0.396; with ELF1, 0.368; with ELK4 it was 0.383; with ETV4 it was 0.389; in the assay with ETV1, 0.381; with ERF, 0.397.

In the case of GCATGC, the binding signal is 0.853 with ERG; 0.848 with ELF1; 0.939 with ELK4; 0.902 in the assay with ETV4; 0.872 with ETV1; 0.757 with ERF.

On to CGTCGT, for which the binding signal in the assay with ERG came to 0.837; in the assay with ELF1 it was 0.907; in the assay with ELK4, 0.944; with ETV4, 0.852; with ETV1, 0.889; with ERF, 0.815.

As to GACTCA, the binding signal was determined as 0.948 in the assay with ERG; 0.936 with ELF1; 0.868 with ELK4; 0.986 in the assay with ETV4; 0.907 in the assay with ETV1; 0.906 in the assay with ERF.

Regarding AGAGCA, the binding signal with ERG worked out at 0.717; with ELF1 it was 0.753; with ELK4, 0.773; with ETV4 it was 0.79; in the assay with ETV1, 0.789; in the assay with ERF, 0.763.

In the case of GTCATA, the binding signal with ERG amounted to 0.837; with ELF1 it was 0.772; with ELK4 it was 0.8; with ETV4 it was 0.773; with ETV1, 0.832; with ERF, 0.81.

With GAGCTG, the binding signal with ERG was determined as 0.78; with ELF1, 0.768; in the assay with ELK4, 0.787; in the assay with ETV4, 0.812; with ETV1, 0.749; with ERF, 0.739.

In the case of AAGAGA, the binding signal with ERG amounted to 0.865; with ELF1, 0.886; with ELK4 it was 0.758; with ETV4 it was 0.773; in the assay with ETV1, 0.815; with ERF it was 0.867.

Regarding CAGTCC, the binding signal in the assay with ERG stood at 0.664; with ELF1, 0.672; in the assay with ELK4, 0.651; in the assay with ETV4, 0.627; with ETV1 it was 0.673; with ERF, 0.647.

Turning to GCGCAA, the binding signal in the assay with ERG came to 0.841; with ELF1 it was 0.845; in the assay with ELK4, 0.906; with ETV4, 0.801; with ETV1, 0.86; with ERF it was 0.829.

For CGGCGC, the binding signal with ERG worked out at 0.652; with ELF1, 0.656; in the assay with ELK4 it was 0.811; with ETV4 it was 0.705; with ETV1, 0.648; in the assay with ERF, 0.616.

Consider ATGAGT, for which the binding signal is 0.679 in the assay with ERG; 0.717 with ELF1; 0.651 with ELK4; 0.702 with ETV4; 0.711 with ETV1; 0.686 with ERF.

On to GGGGGA, for which the binding signal was determined as 0.668 in the assay with ERG; 0.577 with ELF1; 0.536 with ELK4; 0.544 in the assay with ETV4; 0.584 in the assay with ETV1; 0.628 with ERF.
